Experimental data from patent US7144912B2, “Pyrrole-type compounds, compositions, and methods for treating cancer, treating viral diseases and causing immunosuppression” (Gemin X Biotechnologies Inc., priority 2001, dated 2006).
At least one structure is not confirmed: it was looked up by name or label, or the drawing left a doubt.

Key:
[1] = test system: H1299 non-small cell lung carcinoma cells; assay: cell viability by cellular ATP levels (VIALIGHT); format: cell-based; conditions: 10 μM, 72-hour treatment, compared with normal cell lines HMEC and MRC-5
[2] = test system: C33A cervical carcinoma cells; assay: cell viability by cellular ATP levels (VIALIGHT); format: cell-based; conditions: 10 μM, 72-hour treatment, compared with normal cell lines HMEC and MRC-5

## COC1=CC(c2ccc[nH]2)=N/C1=C/c1cc2ccccc2[nH]1 [Compound 79, 4-methoxy-5-(1H-indol-2yl-methylene)-2,2′-bi-1H-pyrrole]
[1]
  ATP levels relative to untreated control cells (FIG. 1): lowered the ATP levels of the cancer cell lines H1299 and C33A to a greater extent than the ATP levels of the normal cell lines HMEC and MRC-5
[2]
  ATP levels relative to untreated control cells (FIG. 1): lowered the ATP levels of the cancer cell lines H1299 and C33A to a greater extent than the ATP levels of the normal cell lines HMEC and MRC-5
